# This is one part of the list. Most values lie at the level of the controls, where differences are scatter.
# The chains behind the UniProt entries cited, without tags or fusion partners. Where a name states a change or a piece, a line headed by the entry shows the natural chain unless it says otherwise.
# UniProt P28347, whole entry: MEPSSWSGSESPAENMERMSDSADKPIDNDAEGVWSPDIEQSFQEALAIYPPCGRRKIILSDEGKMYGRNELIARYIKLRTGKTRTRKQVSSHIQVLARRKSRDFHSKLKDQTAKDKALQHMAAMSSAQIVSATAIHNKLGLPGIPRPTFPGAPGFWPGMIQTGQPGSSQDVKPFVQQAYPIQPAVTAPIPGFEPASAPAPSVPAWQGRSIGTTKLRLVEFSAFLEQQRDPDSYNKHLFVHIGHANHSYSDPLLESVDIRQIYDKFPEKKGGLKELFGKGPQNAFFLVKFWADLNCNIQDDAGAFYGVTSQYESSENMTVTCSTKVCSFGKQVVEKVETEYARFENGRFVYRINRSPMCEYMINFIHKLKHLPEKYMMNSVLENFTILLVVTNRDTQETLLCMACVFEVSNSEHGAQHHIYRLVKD
# UniProt P23246: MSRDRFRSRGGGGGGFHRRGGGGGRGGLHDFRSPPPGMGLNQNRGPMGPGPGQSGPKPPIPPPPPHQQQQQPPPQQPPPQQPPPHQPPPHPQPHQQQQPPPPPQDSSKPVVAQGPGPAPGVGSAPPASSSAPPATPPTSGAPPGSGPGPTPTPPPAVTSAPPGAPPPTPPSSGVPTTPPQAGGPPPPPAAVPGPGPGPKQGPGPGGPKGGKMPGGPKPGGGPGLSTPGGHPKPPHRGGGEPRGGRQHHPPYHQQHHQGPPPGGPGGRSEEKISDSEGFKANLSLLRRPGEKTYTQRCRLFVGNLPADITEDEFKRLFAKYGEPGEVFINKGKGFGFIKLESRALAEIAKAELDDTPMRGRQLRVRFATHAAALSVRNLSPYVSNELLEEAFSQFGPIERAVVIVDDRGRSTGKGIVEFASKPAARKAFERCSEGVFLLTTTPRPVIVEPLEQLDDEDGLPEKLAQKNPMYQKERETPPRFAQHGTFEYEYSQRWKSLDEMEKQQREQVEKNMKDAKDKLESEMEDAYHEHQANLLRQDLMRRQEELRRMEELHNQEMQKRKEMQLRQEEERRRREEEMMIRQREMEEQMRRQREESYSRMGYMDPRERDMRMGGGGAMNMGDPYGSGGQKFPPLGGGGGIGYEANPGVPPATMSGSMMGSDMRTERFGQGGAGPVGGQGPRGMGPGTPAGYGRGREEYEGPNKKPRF
# UniProt P21580: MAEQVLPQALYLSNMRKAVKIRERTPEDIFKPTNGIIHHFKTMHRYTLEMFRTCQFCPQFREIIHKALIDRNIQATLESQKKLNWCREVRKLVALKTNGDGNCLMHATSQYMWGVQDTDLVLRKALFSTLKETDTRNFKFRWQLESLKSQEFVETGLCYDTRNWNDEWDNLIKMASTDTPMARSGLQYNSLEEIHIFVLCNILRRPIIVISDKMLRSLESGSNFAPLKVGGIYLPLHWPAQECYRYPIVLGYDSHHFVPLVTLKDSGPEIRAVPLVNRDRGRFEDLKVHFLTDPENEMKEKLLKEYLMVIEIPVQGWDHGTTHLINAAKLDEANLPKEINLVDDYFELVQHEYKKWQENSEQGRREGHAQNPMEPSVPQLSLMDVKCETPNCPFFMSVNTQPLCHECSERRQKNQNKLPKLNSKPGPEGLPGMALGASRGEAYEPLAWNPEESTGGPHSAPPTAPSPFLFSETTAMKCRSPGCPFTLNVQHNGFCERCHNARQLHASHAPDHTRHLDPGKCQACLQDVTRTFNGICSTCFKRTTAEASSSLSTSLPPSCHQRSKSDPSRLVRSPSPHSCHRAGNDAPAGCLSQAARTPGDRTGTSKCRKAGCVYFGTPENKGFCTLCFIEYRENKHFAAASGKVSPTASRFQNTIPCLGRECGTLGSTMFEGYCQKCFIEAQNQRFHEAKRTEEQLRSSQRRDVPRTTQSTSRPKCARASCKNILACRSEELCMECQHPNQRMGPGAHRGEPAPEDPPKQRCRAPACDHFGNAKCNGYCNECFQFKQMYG
# UniProt P17010: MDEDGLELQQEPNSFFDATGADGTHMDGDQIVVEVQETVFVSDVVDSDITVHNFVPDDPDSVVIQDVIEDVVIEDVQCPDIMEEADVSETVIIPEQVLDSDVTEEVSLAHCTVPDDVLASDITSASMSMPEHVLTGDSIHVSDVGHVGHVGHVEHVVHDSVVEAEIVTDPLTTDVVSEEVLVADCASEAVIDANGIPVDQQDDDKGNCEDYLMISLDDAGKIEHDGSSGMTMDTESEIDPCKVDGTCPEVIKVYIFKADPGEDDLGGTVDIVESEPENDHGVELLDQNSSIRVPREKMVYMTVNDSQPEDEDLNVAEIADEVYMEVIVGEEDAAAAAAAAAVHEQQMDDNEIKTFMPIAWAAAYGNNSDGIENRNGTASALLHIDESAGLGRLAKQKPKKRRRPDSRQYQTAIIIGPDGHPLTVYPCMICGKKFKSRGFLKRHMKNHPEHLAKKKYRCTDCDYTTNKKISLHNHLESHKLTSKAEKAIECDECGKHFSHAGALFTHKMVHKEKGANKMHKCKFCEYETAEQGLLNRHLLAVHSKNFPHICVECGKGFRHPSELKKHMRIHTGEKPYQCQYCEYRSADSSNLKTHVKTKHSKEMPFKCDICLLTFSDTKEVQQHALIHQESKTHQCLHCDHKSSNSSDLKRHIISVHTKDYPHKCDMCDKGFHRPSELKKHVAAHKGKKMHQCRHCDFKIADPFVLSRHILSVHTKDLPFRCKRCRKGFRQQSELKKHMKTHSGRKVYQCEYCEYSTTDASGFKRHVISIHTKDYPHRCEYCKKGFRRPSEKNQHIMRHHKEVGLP
# UniProt P20936: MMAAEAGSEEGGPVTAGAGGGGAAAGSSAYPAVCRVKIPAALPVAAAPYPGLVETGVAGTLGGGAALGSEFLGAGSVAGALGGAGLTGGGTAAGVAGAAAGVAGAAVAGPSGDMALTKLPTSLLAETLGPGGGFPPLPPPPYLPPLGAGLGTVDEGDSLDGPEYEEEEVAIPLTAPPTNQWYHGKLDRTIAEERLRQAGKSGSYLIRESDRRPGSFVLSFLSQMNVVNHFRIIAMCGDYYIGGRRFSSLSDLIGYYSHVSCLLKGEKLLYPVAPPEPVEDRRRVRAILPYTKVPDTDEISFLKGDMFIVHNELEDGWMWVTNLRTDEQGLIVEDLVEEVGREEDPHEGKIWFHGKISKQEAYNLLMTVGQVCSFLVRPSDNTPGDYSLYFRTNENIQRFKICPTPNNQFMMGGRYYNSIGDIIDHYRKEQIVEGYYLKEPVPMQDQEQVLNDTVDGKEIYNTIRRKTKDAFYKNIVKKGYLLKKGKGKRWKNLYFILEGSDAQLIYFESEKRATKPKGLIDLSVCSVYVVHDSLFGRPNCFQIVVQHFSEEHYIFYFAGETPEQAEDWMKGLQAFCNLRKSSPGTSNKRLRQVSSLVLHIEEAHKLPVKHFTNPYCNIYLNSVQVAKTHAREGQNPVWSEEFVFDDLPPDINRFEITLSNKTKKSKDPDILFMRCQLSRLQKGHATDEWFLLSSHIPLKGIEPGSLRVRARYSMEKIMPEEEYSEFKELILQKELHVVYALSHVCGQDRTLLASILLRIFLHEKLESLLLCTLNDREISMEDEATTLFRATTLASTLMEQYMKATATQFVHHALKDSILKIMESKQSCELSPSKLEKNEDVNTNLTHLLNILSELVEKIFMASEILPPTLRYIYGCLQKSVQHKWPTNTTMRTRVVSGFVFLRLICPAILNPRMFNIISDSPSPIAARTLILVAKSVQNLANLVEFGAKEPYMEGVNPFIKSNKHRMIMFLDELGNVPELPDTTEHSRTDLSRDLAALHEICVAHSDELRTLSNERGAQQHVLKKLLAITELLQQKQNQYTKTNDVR
# UniProt P19174: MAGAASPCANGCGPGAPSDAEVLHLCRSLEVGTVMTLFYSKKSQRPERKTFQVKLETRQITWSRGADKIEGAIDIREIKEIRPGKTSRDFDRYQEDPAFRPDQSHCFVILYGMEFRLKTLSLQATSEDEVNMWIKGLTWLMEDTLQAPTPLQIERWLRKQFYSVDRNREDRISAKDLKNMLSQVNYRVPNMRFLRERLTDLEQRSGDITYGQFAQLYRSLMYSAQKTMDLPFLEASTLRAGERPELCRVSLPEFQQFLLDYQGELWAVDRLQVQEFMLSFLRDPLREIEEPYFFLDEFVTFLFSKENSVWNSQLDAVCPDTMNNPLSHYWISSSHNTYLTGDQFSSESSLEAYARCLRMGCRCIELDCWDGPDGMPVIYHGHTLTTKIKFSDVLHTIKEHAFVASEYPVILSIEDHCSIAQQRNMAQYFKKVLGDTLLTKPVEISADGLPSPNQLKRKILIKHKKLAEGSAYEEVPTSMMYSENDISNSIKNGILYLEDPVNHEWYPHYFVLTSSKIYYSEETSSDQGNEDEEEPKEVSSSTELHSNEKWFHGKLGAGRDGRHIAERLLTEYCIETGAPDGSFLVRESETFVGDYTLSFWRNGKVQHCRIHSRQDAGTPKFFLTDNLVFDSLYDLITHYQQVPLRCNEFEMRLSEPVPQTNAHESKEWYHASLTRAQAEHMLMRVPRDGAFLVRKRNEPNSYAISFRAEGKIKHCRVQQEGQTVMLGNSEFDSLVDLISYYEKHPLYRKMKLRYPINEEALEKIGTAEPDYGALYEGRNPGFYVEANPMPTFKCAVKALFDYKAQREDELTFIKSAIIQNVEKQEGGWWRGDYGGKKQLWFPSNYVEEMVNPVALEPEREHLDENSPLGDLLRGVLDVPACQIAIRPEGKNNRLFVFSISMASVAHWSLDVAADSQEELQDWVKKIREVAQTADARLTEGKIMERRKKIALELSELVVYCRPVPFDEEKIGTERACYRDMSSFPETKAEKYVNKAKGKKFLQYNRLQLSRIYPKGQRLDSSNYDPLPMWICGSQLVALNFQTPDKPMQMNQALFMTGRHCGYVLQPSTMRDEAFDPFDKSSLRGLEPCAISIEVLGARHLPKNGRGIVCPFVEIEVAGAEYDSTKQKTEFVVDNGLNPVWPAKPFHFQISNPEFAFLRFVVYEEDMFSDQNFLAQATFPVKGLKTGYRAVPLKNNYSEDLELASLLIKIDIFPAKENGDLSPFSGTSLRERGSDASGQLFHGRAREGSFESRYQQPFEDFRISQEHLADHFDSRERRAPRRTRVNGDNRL
# UniProt P21980: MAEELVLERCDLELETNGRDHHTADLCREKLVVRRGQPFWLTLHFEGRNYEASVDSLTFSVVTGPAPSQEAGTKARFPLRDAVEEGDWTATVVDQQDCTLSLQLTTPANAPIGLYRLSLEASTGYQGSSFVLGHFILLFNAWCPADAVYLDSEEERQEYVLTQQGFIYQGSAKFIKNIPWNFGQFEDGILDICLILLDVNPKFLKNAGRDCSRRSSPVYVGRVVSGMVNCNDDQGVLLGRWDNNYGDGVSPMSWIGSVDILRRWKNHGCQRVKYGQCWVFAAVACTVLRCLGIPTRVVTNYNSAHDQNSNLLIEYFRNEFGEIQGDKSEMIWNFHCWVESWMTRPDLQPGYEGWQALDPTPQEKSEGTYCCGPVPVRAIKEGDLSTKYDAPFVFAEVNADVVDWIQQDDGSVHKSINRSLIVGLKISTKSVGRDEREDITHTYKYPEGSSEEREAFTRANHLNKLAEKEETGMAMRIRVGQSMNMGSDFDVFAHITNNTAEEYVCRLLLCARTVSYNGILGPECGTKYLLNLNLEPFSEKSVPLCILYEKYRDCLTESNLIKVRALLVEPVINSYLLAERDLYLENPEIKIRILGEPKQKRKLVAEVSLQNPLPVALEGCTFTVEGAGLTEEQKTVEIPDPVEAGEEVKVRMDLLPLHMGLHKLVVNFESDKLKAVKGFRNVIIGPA
# UniProt P18754: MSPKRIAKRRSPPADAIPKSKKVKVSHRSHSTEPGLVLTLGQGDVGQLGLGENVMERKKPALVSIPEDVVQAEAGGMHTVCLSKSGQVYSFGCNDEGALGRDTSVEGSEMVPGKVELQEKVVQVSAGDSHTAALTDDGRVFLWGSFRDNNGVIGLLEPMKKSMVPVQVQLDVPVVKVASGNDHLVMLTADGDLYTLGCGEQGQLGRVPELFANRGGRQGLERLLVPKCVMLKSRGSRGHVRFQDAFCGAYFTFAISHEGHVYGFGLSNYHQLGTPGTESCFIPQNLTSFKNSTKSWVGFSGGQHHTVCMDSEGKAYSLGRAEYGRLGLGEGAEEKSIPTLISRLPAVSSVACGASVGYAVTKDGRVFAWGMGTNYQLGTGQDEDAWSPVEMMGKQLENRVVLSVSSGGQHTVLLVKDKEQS
# UniProt P16220: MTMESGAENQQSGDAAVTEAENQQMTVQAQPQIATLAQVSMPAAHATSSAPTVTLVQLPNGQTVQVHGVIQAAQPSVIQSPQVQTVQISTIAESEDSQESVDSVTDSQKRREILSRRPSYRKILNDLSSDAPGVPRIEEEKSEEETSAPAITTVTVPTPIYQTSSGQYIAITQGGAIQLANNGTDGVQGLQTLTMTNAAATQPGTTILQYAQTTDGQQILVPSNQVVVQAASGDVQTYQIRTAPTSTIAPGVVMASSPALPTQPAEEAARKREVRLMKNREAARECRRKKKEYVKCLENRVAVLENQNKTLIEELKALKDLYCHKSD
# Compound: Cc1nc(Nc2ncc(C(=O)Nc3c(C)cccc3Cl)s2)cc(N2CCN(CCO)CC2)n1 [dasatinib]
# Assay: log2 fold change of tryptic peptide abundance, ligand vs vehicle (limited proteolysis) (log2 ratio); higher = more trypsin-susceptible (destabilized)
# Conditions: ligand concentration: 5 uM; sample: K562 cleared lysate
row,Target,log2 fold change
1,"TEAD1 (peptide sequence: ALQHMAAMSSAQIVSATAIHNK, peptide start residue: 118) (UniProt P28347)",-0.133
2,"AKR1A1 (peptide sequence: EELFVTSK, peptide start residue: 73) (UniProt P14550)",-0.428
3,"UniProt P25098 (peptide sequence: ISDLGLACDFSKK, peptide start residue: 333)",-0.639
4,"POU2F1 (peptide sequence: TSIETNIR, peptide start residue: 384) (UniProt P14859)",0.0457
5,"SFPQ (peptide sequence: REEEMMIR, peptide start residue: 574) (UniProt P23246)",0.447
6,"PSMC3 (peptide sequence: LKPGDLVGVNK, peptide start residue: 145) (UniProt P17980)",-0.263
7,"RAC2 (peptide sequence: LDLRDDKDTIEK, peptide start residue: 117) (UniProt P15153)",-0.275
8,"UniProt P17035 (peptide sequence: DSHLAQHQR, peptide start residue: 451)",0.59
9,"TNFAIP3 (peptide sequence: CRAPACDHFGNAK, peptide start residue: 762) (UniProt P21580)",-0.371
10,"PCMT1 (peptide sequence: TDKVFEVMLATDR, peptide start residue: 25) (UniProt P22061)",-0.118
11,"UniProt P17612 (peptide sequence: CGKEFSEF, peptide start residue: 344)",0.145
12,"VAV1 (peptide sequence: DFVNLHSFQVR, peptide start residue: 445) (UniProt P15498)",0.162
13,"ERCC3 (peptide sequence: LNKPYIYGPTSQGER, peptide start residue: 575) (UniProt P19447)",-0.152
14,"UniProt P16989 (peptide sequence: DGVPEGAQLQGPVHRNPTYRPR, peptide start residue: 269)",0.383
15,"UniProt P17252 (peptide sequence: AEVADEKLHVTVR, peptide start residue: 166)",-0.542
16,"MSN (peptide sequence: DRSEEER, peptide start residue: 502) (UniProt P26038)",0.111
17,"ZFX (peptide sequence: CTDCDYTTNKK, peptide start residue: 458) (UniProt P17010)",-0.611
18,"ATF3 (peptide sequence: AEVAPEEDER, peptide start residue: 79) (UniProt P18847)",-0.368
19,"DNMT1 (peptide sequence: NFVSFKR, peptide start residue: 1270) (UniProt P26358)",-0.357

# As entered above.
# Entry for SFPQ (peptide sequence: REEEMMIR, peptide start residue: 574) (UniProt P23246) under log2 fold change: 0.447
# Entry for UniProt P17252 (peptide sequence: AEVADEKLHVTVR, peptide start residue: 166) under log2 fold change: -0.542

# Next records follow.

row,Target,log2 fold change
1,"PPP3CB (peptide sequence: AAPPPPPPPPPPPGADRVVK, peptide start residue: 9) (UniProt P16298)",-0.173
2,"NAT1 (peptide sequence: SFCSLQTPDGVHCLVGFTLTHR, peptide start residue: 221) (UniProt P18440)",0.527
3,"UniProt P15391 (peptide sequence: GILYAAPQLR, peptide start residue: 505)",0.116
4,"UniProt P22033 (peptide sequence: AGQQGLSVAFDLATHR, peptide start residue: 129)",0.107
5,"TAL1 (peptide sequence: WRQQNVNGAFAELR, peptide start residue: 198) (UniProt P17542)",-0.284
6,"PSMB9 (peptide sequence: AGAPTGDLPR, peptide start residue: 4) (UniProt P28065)",-0.0493
7,"RASA1 (peptide sequence: SSPGTSNKR, peptide start residue: 581) (UniProt P20936)",0.206
8,"FLNA (peptide sequence: TGVELGKPTHFTVNAK, peptide start residue: 885) (UniProt P21333)",0.367
9,"PLCG1 (peptide sequence: SLMYSAQK, peptide start residue: 219) (UniProt P19174)",0.165
10,"UniProt P19544 (peptide sequence: HHNMHQR, peptide start residue: 434)",-0.323
11,"CALB2 (peptide sequence: LLPVQENFLLK, peptide start residue: 170) (UniProt P22676)",0.213
12,"CPT2 (peptide sequence: SFNLIIAK, peptide start residue: 355) (UniProt P23786)",-0.534
13,"TGM2 (peptide sequence: DLYLENPEIK, peptide start residue: 581) (UniProt P21980)",0.217
14,"XPA (peptide sequence: LAARPYSATAAAATGGMANVK, peptide start residue: 43) (UniProt P23025)",-0.0727
15,"ZNF708 (peptide sequence: AFNQSSTLMK, peptide start residue: 512) (UniProt P17019)",-0.627
16,"HNRNPA2B1 (peptide sequence: DYFEEYGK, peptide start residue: 130) (UniProt P22626)",0.211
17,"RCC1 (peptide sequence: SPPADAIPK, peptide start residue: 11) (UniProt P18754)",-0.352
18,"CREB1 (peptide sequence: KILNDLSSDAPGVPR, peptide start residue: 122) (UniProt P16220)",-0.0299

# Source: the supplement of paper PMC12819154, “High-throughput peptide-centric local stability assay extends protein–ligand identification to membrane proteins, tissues and bacteria” (Nature Structural & Molecular Biology, 2025)
